In the supplement of paper PMC9578143, “Small-Molecule Ebselen Binds to YTHDF Proteins Interfering with the Recognition of N^6-Methyladenosine-Modified RNAs” (ACS Pharmacology & Translational Science, 2022):
Some of the results follow. Part of the spread comes from offsets between plates or batches.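 Hits were defined as a z-score below −3.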 Positions of bridges follow the written chain, without caps; N, C: chain ends. Non-standard residues stand in square brackets, D forms with d. Residues, ends and D or L forms follow the SMILES beside them. *: point of attachment. Ileψ(thiazoline)Cys = CC[C@H](C)[C@H](N)C1=N[C@H](C(=O)*)CS1; dOrn = NCCC[C@@H](N)C(=O)O

Biological target: T1, YTHDF1 YTH domain (aa 365-554) (UniProt Q9BYJ9)
T1 sequence (whole entry): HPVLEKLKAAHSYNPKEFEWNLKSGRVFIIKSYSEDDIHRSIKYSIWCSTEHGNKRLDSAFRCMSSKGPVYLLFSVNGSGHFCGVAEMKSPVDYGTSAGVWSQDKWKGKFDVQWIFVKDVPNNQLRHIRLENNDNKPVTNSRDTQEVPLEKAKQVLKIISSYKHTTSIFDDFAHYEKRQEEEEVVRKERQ
Test: tryptophan fluorescence intensity z-score (mean); higher = higher fluorescence, less quenching (negative = binding / quenching)
Conditions: 10 µM

Tryptophan fluorescence intensity z-score, inactive:
CC1(C)S[C@@H]2[C@H](NC(=O)[C@H](NC(=O)N3CCNC3=O)c3ccccc3)C(=O)N2[C@H]1C(=O)O (plate: M 7-8) 0.0133, COc1c(-c2coc3cc4c(cc3c2=O)CC(OC(C)=O)C(C)(C)O4)ccc2c1C=CC(C)(C)O2 (stereo not given) (plate: M 21-22) 0.117, CC1(C)CC[C@]2(C)CC[C@]3(C)C(=CC[C@@H]4[C@@]5(C)CC[C@H](O)C(C)(C)[C@@H]5CC[C@]43C)[C@@H]2C1 [beta-AMYRIN] (plate: M 13-14) 0.612, CN(C(=O)C(Cl)Cl)c1ccc(OC(=O)c2ccco2)cc1 (plate: M 11-12) -0.0875, Oc1cc(O)c2c(c1)O[C@H](c1cc(O)c(O)c(O)c1)[C@H](O)C2 (plate: M 15-16) 0.416, Oc1c(I)cc(Cl)c2cccnc12 (plate: M 9-10) -0.873, C[C@H]1[C@H](C)CC[C@]2(CO)CC[C@]3(C)C(=CC[C@@H]4[C@@]5(C)CC[C@H](O)C(C)(C)[C@@H]5CC[C@]43C)[C@H]12 (plate: M 19-20) 0.169, C=CC(C1=CC(=O)C(OC)=CC1=O)c1ccc(OC)cc1 (stereo not given) (plate: M 15-16) -0.116, COc1ccc(-c2cc(=O)c3cc(OC)ccc3o2)cc1 (plate: M 17-18) -0.0532, CN(C)CCOC(C)(c1ccccc1)c1ccccn1 (stereo not given) (plate: M 3-4) -0.12, CC(=O)c1ccc2c(c1)N(CCCN(C)C)c1ccccc1S2 (plate: M 11-12) -0.872, O=c1cc(-c2ccc(O)cc2)oc2ccc(O)cc12 (plate: M 17-18) 0.297, CC(=O)NS(=O)(=O)c1ccc(NC(=O)c2ccccc2C(=O)O)cc1 (plate: M 11-12) 0.379, O=C(CCc1ccc(O)cc1)c1c(O)cc(O)cc1O (plate: M 17-18) -0.4, CC[C@H](C)[C@H](N)C1=N[C@H](C(=O)N[C@@H](CC(C)C)C(=O)N[C@H](CCC(=O)O)C(=O)N[C@H](C(=O)N[C@H]2CCCCNC(=O)[C@H](CC(N)=O)NC(=O)[C@@H](CC(=O)O)NC(=O)[C@H](Cc3cnc[nH]3)NC(=O)[C@@H](Cc3ccccc3)NC(=O)[C@H]([C@@H](C)CC)NC(=O)[C@@H](CCCN)NC2=O)[C@@H](C)CC)CS1 (plate: M 1-2) ({Ileψ(thiazoline)Cys}-L[dE]IK[dOrn]I[dF]H[dD]N; lactam 4-C) -0.81, CC(=O)C1=C(O)C=C2Oc3c(C(C)=O)c(O)c(C)c(O)c3[C@]2(C)C1=O (plate: M 17-18) 0.406, COC(=O)C[C@H]1C(C)(C)C2(O)OC34CC2C(=O)[C@]1(C)C3CC[C@]1(C)C4=CC(=O)O[C@H]1c1ccoc1 (stereo partly drawn) [8beta-HYDROXYCARAPIN,3,8-HEMIACETAL] (plate: M 13-14) -0.127, CNC[C@H](O)c1ccc(O)c(O)c1 (plate: M 3-4) 0.606, C=CC(C)(O)CCC1C(=C)CC(OC(C)=O)C2C(C)(C)CCCC12C (stereo not given) (plate: M 17-18) -0.112, CN1CCN(CCCN2c3ccccc3Sc3ccc(C(F)(F)F)cc32)CC1 (plate: M 5-6) -0.199, COc1ccc(OC)c(C(O)CNC(=O)CN)c1 (stereo not given) (plate: M 9-10) 0.402, C=C1c2c(Cl)ccc(O)c2C(=O)C2=C(O)[C@]3(O)C(=O)C(C(N)=O)=C(O)[C@@H](N(C)C)[C@@H]3[C@@H](O)[C@H]12.O=C(O)c1cc(S(=O)(=O)O)ccc1O (plate: M 7-8) -0.233, COc1ccc2c(c1OC)C(=O)O[C@@H]2[C@H]1c2c(cc3c(c2OC)OCO3)CCN1C (plate: M 3-4) 0.172, CC(=O)NCCCS(=O)(=O)O (plate: M 11-12) 0.233, O=C1C=C(O)C(=O)c2ccccc21 (plate: M 19-20) 0.531, O=C(C1CCCCC1)N1CC(=O)N2CCc3ccccc3C2C1 (stereo not given) (plate: M 5-6) 0.333, COc1ccc(-c2cc(=O)c3c(O)c(OC)c(O[C@@H]4O[C@H](CO[C@@H]5O[C@@H](C)[C@H](O)[C@@H](O)[C@H]5O)[C@@H](O)[C@H](O)[C@H]4O)cc3o2)cc1 (plate: M 15-16) -0.774, Cn1c(=O)[nH]c(=O)c2[nH]cnc21 (plate: M 23-24) 0.218, COc1ccc2c(c1)c(CC(=O)O)c(C)n2C(=O)c1ccc(Cl)cc1 (plate: M 3-4) 0.18, Nc1nc2ccc(OC(F)(F)F)cc2s1 (plate: M 11-12) -0.124, O=C(O)[C@@H](O)[C@H](O)[C@H](O)[C@@H](O)C(=O)O (plate: M 21-22) 0.432, OC[C@H]1O[C@H](O[C@]2(CCl)O[C@H](CCl)[C@@H](O)[C@@H]2O)[C@H](O)[C@@H](O)[C@H]1Cl (plate: M 11-12) -0.453, O=C(OCC(O)CO)c1ccccc1Nc1ccnc2cc(Cl)ccc12 (stereo not given) (plate: M 23-24) 0.0566, Cc1cc(O)c2c(c1)C(=O)c1cccc(O)c1C2=O (plate: M 21-22) 0.204, CC(C(=O)O)c1ccc(-c2ccccc2)c(F)c1 (stereo not given) (plate: M 3-4) -0.0795, CC(=O)OC1CCC2(C)C(=CCC3C2CCC2(C)C(C(C)CCCC(C)C)CCC32)C1 (stereo not given) (plate: M 21-22) 0.537, O=c1ccc2cc(O)c(O)cc2o1 (plate: M 21-22) 0.116, C[C@H](CCC(=O)O)[C@H]1CC[C@H]2[C@@H]3[C@H](O)C[C@@H]4C[C@H](O)CC[C@]4(C)[C@H]3C[C@H](O)[C@]12C (plate: M 17-18) 0.406, C[C@H]1O[C@@H](O[C@H]2[C@@H](O)C[C@H](O[C@H]3[C@@H](O)C[C@H](O[C@H]4CC[C@@]5(C)[C@H](CC[C@@H]6[C@@H]5C[C@@H](O)[C@]5(C)[C@@H](C7=CC(=O)OC7)CC[C@]65O)C4)O[C@@H]3C)O[C@@H]2C)C[C@H](O)[C@@H]1O (plate: M 1-2) -0.336, O=C1c2c(O)cccc2C([C@@H]2O[C@H](CO)[C@@H](O)[C@H](O)[C@H]2O)c2cc(CO)cc(O)c21 (stereo not given in full) (plate: M 21-22) -0.186, CC(C(=O)O)c1ccc2c(c1)[nH]c1ccc(Cl)cc12 (stereo not given) (plate: M 7-8) 0.102, C/C1=C2/[N-][C@H]([C@H](CC(N)=O)[C@@]2(C)CCC(=O)NC[C@@H](C)OP(=O)([O-])O[C@H]2[C@@H](O)[C@@H](n3cnc4cc(C)c(C)cc43)O[C@@H]2CO)[C@]2(C)N=C(/C(C)=C3N=C(/C=C4N=C1[C@@H](CCC(N)=O)C\4(C)C)[C@@H](CCC(N)=O)[C@]\3(C)CC(N)=O)[C@@H](CCC(N)=O)[C@]2(C)CC(N)=O.[CH2-][C@H]1O[C@H](n2cnc3c(N)ncnc32)[C@@H](O)[C@H]1O.[Co+3] (plate: M 5-6) -0.181, CN(C)C(=O)C(CCN1CCC(O)(c2ccc(Cl)cc2)CC1)(c1ccccc1)c1ccccc1 (plate: M 13-14) 0.015, Nc1nc2[nH]cnc2c(=S)[nH]1 (plate: M 5-6) -0.397, CC(=O)N1CCCC1C(=O)O (stereo not given) (plate: M 23-24) 0.405, Oc1ccc(/C=C/c2cc(O)cc(O)c2)cc1 (plate: M 19-20) -0.221, CCCCCCCCCCCCCCC(C(=O)O)C(O)(CC(=O)OC)C(=O)O (stereo not given) (plate: M 15-16) 0.547, Cc1c(N(C)C)c(=O)n(-c2ccccc2)n1C (plate: M 5-6) 0.0592, Oc1c(Cl)cc(Cl)c(Cl)c1Cc1c(O)c(Cl)cc(Cl)c1Cl (plate: M 3-4) -0.655, Cc1cc(=O)[nH]c(=S)[nH]1 (plate: M 3-4) 0.202, COc1cc(C)c2c(c1C=O)Oc1c(c(C)c(O)c3c1C(O)OC3=O)OC2=O (stereo not given) (plate: M 17-18) 0.19, CC[C@]1(O)C[C@H]2CN(CCc3c([nH]c4ccccc34)[C@@](C(=O)OC)(c3cc4c(cc3OC)N(C=O)[C@H]3[C@@](O)(C(=O)OC)[C@H](OC(C)=O)[C@]5(CC)C=CCN6CC[C@]43[C@@H]65)C2)C1 (plate: M 11-12) -0.708, COc1ccccc1OCC(O)CO (stereo not given) (plate: M 3-4) -0.575, Cc1cccc(C)c1OCC(C)N (stereo not given) (plate: M 9-10) 0.0814, CN(C)CCC=C1c2ccccc2COc2ccccc21 (plate: M 3-4) 0.103, CN1CCC[C@@H]1Cc1c[nH]c2ccc(CCS(=O)(=O)c3ccccc3)cc12 (plate: M 11-12) -0.177, CC(C)[N+](C)(CCOC(=O)C1c2ccccc2Oc2ccccc21)C(C)C (plate: M 5-6) -0.0898, COC(=O)C(Cc1ccccc1)NC(=O)/C(=C1/OC(=O)C(c2ccccc2)=C1O)c1ccccc1 (stereo not given) (plate: M 19-20) 0.171, CC1=CC(=O)C(C(C)C)=CC1=O (plate: M 23-24) -0.0337, OCc1cccnc1 (plate: M 7-8) -0.0897
